From PMC12823420
These are yes or no findings as the source states them, for the method shown. In cells and extracts the contact can be indirect. Some results given as binding are weak or reduced against the parent protein; the word gives no strength.

Molecular target: V5-flag-TurboID-tagged UAP56, wild type (human) (UniProt Q13838)
Test: co-IP; anti-flag M2 IP of V5-flag-TurboID-UAP56 from K562 nuclei, western blot

binding: binds
B1: endogenous SARNP (K562) (protein, UniProt P82979 1-210)
chain: MATETVELHKLKLAELKQECLARGLETKGIKQDLIHRLQAYLEEHAEEEANEEDVLGDETEEEETKPIELPVKEEEPPEKTVDVAAEKKVVKITSEIPQTERMQKRAERFNVPVSLESKKAARAARFGISSVPTKGLSSDNKPMVNLDKLKERAQRFGLNVSSISRKSEDDEKLKKRKERFGIVTSSAGTGTTEDTEAKKRKRAERFGIA
